Measured values: publication PMC13103736
For at least one entry, the source does not settle the construct or the ends of the probe. At least one verdict was read from the data and is not stated in words by the source.

By UniProt entry, the sequences of proteins in these tests, tags left out. Residues count along the entry.
UniProt P51608, 90-181: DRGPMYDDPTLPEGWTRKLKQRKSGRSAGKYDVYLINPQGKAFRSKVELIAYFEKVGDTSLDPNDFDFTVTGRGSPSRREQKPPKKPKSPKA

Biological target: MECP2 wt (Homo sapiens) (UniProt P51608)
Assay: EMSA
Details: 2 nM DNA; 5mC at position 12 of strand 2 (CpA strand); MECP2 EMSA: 20 mM HEPES, 30 mM KCl, 1 mM EDTA, 1 mM (NH4)2SO4, 0.2% Tween-20, pH 7.3, 1 mM DTT, 3.4 uM poly(A):poly(T), 21 C 20 min; recombinant protein; residues 90-181; label: 5'-FAM strand 1

AAAAAAAAAAATGAAAAAAAAAAA (double strand) [mCpA 24-mer dA/dT duplex (o4277+o4278)]
binding result: binds
